Results taken from BindingDB's records for doi:10.7270/Q251433M (D3R/Abbott, 2020).

By UniProt entry, the sequences of proteins in these tests, tags left out.
UniProt Q16539, whole entry: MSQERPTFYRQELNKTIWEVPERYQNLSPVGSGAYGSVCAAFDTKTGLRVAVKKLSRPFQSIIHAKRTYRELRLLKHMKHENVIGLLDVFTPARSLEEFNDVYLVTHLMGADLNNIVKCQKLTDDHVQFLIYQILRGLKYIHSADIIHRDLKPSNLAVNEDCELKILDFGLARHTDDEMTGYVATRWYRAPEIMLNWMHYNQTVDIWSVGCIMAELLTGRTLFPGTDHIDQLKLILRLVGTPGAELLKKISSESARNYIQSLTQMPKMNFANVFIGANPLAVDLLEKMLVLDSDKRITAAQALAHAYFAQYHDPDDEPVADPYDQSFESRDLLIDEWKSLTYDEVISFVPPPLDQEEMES

Molecular target: Mitogen-activated protein kinase 14 (Homo sapiens, UniProt Q16539)

Structure (SMILES) | Kd
CS(=O)(=O)c1ccccc1-c1nc(-c2ccc(F)cc2)c(-c2ccncc2)[nH]1 [D3RKN_30] | 50 nM
O=C(O)c1ccc(-c2nc(-c3ccc(F)cc3)c(-c3ccncc3)[nH]2)cc1 [D3RKN_53] | 1.3 nM
